Laboratory results: paper doi:10.1101/491779
Results are given in words; binding and its absence hold for the method and conditions named. Binding seen in cells or lysates may run through a third protein. Some entries that bind do so weakly or less than the wild type. For some assays here: Tags and fused reporters may be left off the sequences shown.

The chains behind the UniProt entries cited, without tags or fusion partners. Where a name states a change or a piece, a line headed by the entry shows the natural chain unless it says otherwise.
UniProt Q13263, whole entry: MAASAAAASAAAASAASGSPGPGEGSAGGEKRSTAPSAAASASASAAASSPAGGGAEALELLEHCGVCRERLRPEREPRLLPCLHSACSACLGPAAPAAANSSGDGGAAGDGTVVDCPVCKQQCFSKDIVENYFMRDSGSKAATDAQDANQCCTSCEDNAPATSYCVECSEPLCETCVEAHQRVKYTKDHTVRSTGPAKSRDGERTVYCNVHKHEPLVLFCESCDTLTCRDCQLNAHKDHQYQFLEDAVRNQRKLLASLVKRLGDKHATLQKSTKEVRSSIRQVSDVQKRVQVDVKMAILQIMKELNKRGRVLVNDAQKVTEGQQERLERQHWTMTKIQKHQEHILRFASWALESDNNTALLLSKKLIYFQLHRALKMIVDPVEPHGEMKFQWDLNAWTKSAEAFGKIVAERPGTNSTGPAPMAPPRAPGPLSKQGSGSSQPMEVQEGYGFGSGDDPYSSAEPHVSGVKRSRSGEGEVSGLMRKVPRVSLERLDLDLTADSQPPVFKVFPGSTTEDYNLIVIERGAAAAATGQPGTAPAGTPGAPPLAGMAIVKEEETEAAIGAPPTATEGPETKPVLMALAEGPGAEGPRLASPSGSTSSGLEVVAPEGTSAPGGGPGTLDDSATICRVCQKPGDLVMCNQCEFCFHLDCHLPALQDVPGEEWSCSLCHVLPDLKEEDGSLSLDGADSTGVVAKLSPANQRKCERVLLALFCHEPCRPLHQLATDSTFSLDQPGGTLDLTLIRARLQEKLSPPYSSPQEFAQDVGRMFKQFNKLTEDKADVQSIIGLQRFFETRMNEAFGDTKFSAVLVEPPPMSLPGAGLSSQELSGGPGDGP
UniProt Q13185, whole entry: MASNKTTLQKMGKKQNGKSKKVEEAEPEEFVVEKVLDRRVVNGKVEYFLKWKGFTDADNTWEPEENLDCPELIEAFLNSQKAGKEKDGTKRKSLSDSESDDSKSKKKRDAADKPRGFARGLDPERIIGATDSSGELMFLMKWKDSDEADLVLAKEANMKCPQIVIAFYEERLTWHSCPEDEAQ

Experiments:
Experiment in all cases: co-IP
[1] = molecular target: T1, FLAG-C11orf46 R236H (human) (UniProt Q8N8R7)
T1 sequence: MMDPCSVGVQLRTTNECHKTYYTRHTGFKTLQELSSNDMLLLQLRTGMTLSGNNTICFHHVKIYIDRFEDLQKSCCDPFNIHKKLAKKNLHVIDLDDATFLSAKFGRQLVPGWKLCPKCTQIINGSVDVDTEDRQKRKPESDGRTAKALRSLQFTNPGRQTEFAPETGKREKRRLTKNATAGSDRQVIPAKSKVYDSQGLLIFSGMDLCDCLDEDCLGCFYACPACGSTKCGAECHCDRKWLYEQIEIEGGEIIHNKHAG

[2] = molecular target: T2, FLAG-HA-tagged full length C11orf46 (human) (UniProt Q8N8R7)
T2 sequence: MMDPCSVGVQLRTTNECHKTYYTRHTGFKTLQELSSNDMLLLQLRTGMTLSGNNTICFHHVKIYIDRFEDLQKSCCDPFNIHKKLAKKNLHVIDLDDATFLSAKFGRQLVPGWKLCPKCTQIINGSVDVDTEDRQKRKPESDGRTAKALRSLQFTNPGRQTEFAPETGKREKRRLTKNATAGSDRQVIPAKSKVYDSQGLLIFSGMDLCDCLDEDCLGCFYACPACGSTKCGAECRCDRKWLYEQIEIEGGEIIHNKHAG

[3] = molecular target: T3, C11orf46 (endogenous, HeLa) (human (endogenous in HeLa)) (UniProt Q8N8R7)
T3 sequence: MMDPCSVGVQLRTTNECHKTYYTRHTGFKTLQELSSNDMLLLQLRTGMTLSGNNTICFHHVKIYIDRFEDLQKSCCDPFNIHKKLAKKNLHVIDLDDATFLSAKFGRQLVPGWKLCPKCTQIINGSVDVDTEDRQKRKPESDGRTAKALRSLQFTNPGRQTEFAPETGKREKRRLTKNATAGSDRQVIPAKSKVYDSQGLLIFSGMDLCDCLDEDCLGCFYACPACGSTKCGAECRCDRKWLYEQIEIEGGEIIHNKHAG

## KAP1 (endogenous, HEK293) (from UniProt Q13263 1-835)
[1]
  binding: binds
[2]
  binding: binds

## heterochromatin-associated protein 1 gamma (HP1γ) (endogenous, HeLa) (from UniProt Q13185 1-183)
[3]
  binding: binds

B1: MCAF1 (endogenous, HEK293) (protein, UniProt Q6VMQ6 1-1270)
chain: MDSLEEPQKKVFKARKTMRVSDRQQLEAVYKVKEELLKTDVKLLNGNHENGDLDPTSPLENMDYIKDKEEVNGIEEICFDPEGSKAEWKETPCILSVNVKNKQDDDLNCEPLSPHNITPEPVSKLPAEPVSGDPAPGDLDAGDPASGVLASGDSTSGDPTSSEPSSSDAASGDATSGDAPSGDVSPGDATSGDATADDLSSGDPTSSDPIPGEPVPVEPISGDCAADDIASSEITSVDLASGAPASTDPASDDLASGDLSSSELASDDLATGELASDELTSESTFDRTFEPKSVPVCEPVPEIDNIEPSSNKDDDFLEKNGADEKLEQIQSKDSLDEKNKADNNIDANEETLETDDTTICSDRPPENEKKVEEDIITELALGEDAISSSMEIDQGEKNEDETSADLVETINENVIEDNKSENILENTDSMETDEIIPILEKLAPSEDELTCFSKTSLLPIDETNPDLEEKMESSFGSPSKQESSESLPKEAFLVLSDEEDISGEKDESEVISQNETCSPAEVESNEKDNKPEEEEQVIHEDDERPSEKNEFSRRKRSKSEDMDNVQSKRRRYMEEEYEAEFQVKITAKGDINQKLQKVIQWLLEEKLCALQCAVFDKTLAELKTRVEKIECNKRHKTVLTELQAKIARLTKRFEAAKEDLKKRHEHPPNPPVSPGKTVNDVNSNNNMSYRNAGTVRQMLESKRNVSESAPPSFQTPVNTVSSTNLVTPPAVVSSQPKLQTPVTSGSLTATSVLPAPNTATVVATTQVPSGNPQPTISLQPLPVILHVPVAVSSQPQLLQSHPGTLVTNQPSGNVEFISVQSPPTVSGLTKNPVSLPSLPNPTKPNNVPSVPSPSIQRNPTASAAPLGTTLAVQAVPTAHSIVQATRTSLPTVGPSGLYSPSTNRGPIQMKIPISAFSTSSAAEQNSNTTPRIENQTNKTIDASVSKKAADSTSQCGKATGSDSSGVIDLTMDDEESGASQDPKKLNHTPVSTMSSSQPVSRPLQPIQPAPPLQPSGVPTSGPSQTTIHLLPTAPTTVNVTHRPVTQVTTRLPVPRAPANHQVVYTTLPAPPAQAPLRGTVMQAPAVRQVNPQNSVTVRVPQTTTYVVNNGLTLGSTGPQLTVHHRPPQVHTEPPRPVHPAPLPEAPQPQRLPPEAASTSLPQKPHLKLARVQSQNGIVLSWSVLEVDRSCATVDSYHLYAYHEEPSATVPSQWKKIGEVKALPLPMACTLTQFVSGSKYYFAVRAKDIYGRFGPFCDPQSTDVISSTQSS
[2]
  binding: binds

B2: MCAF1 (endogenous, HeLa) (protein, UniProt Q6VMQ6 1-1270)
chain: MDSLEEPQKKVFKARKTMRVSDRQQLEAVYKVKEELLKTDVKLLNGNHENGDLDPTSPLENMDYIKDKEEVNGIEEICFDPEGSKAEWKETPCILSVNVKNKQDDDLNCEPLSPHNITPEPVSKLPAEPVSGDPAPGDLDAGDPASGVLASGDSTSGDPTSSEPSSSDAASGDATSGDAPSGDVSPGDATSGDATADDLSSGDPTSSDPIPGEPVPVEPISGDCAADDIASSEITSVDLASGAPASTDPASDDLASGDLSSSELASDDLATGELASDELTSESTFDRTFEPKSVPVCEPVPEIDNIEPSSNKDDDFLEKNGADEKLEQIQSKDSLDEKNKADNNIDANEETLETDDTTICSDRPPENEKKVEEDIITELALGEDAISSSMEIDQGEKNEDETSADLVETINENVIEDNKSENILENTDSMETDEIIPILEKLAPSEDELTCFSKTSLLPIDETNPDLEEKMESSFGSPSKQESSESLPKEAFLVLSDEEDISGEKDESEVISQNETCSPAEVESNEKDNKPEEEEQVIHEDDERPSEKNEFSRRKRSKSEDMDNVQSKRRRYMEEEYEAEFQVKITAKGDINQKLQKVIQWLLEEKLCALQCAVFDKTLAELKTRVEKIECNKRHKTVLTELQAKIARLTKRFEAAKEDLKKRHEHPPNPPVSPGKTVNDVNSNNNMSYRNAGTVRQMLESKRNVSESAPPSFQTPVNTVSSTNLVTPPAVVSSQPKLQTPVTSGSLTATSVLPAPNTATVVATTQVPSGNPQPTISLQPLPVILHVPVAVSSQPQLLQSHPGTLVTNQPSGNVEFISVQSPPTVSGLTKNPVSLPSLPNPTKPNNVPSVPSPSIQRNPTASAAPLGTTLAVQAVPTAHSIVQATRTSLPTVGPSGLYSPSTNRGPIQMKIPISAFSTSSAAEQNSNTTPRIENQTNKTIDASVSKKAADSTSQCGKATGSDSSGVIDLTMDDEESGASQDPKKLNHTPVSTMSSSQPVSRPLQPIQPAPPLQPSGVPTSGPSQTTIHLLPTAPTTVNVTHRPVTQVTTRLPVPRAPANHQVVYTTLPAPPAQAPLRGTVMQAPAVRQVNPQNSVTVRVPQTTTYVVNNGLTLGSTGPQLTVHHRPPQVHTEPPRPVHPAPLPEAPQPQRLPPEAASTSLPQKPHLKLARVQSQNGIVLSWSVLEVDRSCATVDSYHLYAYHEEPSATVPSQWKKIGEVKALPLPMACTLTQFVSGSKYYFAVRAKDIYGRFGPFCDPQSTDVISSTQSS
[3]
  binding: binds
